Experimental data reported in the M2OR odorant receptor database.
The list shows a part of the results, in another mix than the full data. The calls were merged from several studies; some rest on single wells. This is one part of the list.

How the values were obtained:
Details in all cases: stereoisomer not certain
[1] = tested on: T1, OR8H3
T1 sequence (whole entry): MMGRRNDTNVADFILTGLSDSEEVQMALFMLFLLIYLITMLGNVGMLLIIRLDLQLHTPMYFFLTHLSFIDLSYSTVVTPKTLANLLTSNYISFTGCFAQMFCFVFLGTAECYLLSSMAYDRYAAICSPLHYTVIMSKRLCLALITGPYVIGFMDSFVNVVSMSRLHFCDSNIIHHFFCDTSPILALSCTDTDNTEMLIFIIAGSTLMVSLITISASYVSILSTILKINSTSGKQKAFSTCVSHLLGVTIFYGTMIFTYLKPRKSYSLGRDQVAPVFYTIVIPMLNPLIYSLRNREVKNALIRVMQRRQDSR
Procedure, shortened: (§1)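 Transient luciferase assays in mammalian cell lines were common, though methods varied by source. The values come from published papers and their supplementary material, with extra details from the original authors when needed. Responsive refers to a measured signal the original authors judged statistically different from baseline, and non-responsive (inactive) to the remainder.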

[2] = tested on: T2, OR8I2
T2 sequence (whole entry): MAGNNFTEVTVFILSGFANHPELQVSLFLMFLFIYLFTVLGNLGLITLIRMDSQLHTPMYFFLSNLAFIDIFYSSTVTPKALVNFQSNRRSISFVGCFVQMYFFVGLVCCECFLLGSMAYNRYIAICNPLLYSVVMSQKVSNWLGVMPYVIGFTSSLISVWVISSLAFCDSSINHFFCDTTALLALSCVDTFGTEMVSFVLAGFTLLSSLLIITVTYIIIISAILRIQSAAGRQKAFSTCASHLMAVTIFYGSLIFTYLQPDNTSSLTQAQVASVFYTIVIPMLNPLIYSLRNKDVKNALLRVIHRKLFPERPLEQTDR
Procedure, shortened: as §1

[3] = tested on: T3, OR8J1
T3 sequence (whole entry): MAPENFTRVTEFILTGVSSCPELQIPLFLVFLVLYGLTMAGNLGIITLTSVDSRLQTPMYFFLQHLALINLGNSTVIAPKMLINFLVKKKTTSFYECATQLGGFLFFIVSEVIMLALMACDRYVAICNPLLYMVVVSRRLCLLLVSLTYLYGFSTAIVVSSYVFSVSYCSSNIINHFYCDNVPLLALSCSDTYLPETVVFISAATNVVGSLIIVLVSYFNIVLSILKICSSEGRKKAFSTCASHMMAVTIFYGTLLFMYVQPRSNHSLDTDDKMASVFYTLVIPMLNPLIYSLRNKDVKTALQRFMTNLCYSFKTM
Procedure, shortened: as §1

[4] = molecular target: T4, OR8J3 (Homo sapiens) (UniProt Q8NGG0)
T4 sequence (whole entry): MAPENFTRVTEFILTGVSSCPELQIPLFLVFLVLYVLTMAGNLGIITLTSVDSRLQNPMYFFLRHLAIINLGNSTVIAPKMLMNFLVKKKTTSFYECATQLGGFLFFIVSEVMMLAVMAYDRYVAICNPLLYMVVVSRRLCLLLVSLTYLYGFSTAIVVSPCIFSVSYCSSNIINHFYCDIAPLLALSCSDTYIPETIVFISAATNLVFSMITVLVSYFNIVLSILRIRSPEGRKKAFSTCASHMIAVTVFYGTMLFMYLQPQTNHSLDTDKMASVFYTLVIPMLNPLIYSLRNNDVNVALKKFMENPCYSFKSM
Procedure, shortened: as §1

[5] = molecular target: T5, OR8K1 (Homo sapiens) (UniProt Q8NGG5)
T5 sequence (whole entry): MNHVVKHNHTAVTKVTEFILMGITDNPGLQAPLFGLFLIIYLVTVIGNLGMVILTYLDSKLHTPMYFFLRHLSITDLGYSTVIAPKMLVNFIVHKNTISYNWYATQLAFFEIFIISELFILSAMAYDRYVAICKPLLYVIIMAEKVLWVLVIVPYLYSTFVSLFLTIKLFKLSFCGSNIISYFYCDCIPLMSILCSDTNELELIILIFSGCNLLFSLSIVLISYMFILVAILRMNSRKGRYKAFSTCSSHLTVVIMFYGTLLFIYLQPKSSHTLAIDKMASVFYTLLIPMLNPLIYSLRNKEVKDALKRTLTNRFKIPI
Procedure, shortened: as §1

[6] = tested on: T6, OR8K3
T6 sequence (whole entry): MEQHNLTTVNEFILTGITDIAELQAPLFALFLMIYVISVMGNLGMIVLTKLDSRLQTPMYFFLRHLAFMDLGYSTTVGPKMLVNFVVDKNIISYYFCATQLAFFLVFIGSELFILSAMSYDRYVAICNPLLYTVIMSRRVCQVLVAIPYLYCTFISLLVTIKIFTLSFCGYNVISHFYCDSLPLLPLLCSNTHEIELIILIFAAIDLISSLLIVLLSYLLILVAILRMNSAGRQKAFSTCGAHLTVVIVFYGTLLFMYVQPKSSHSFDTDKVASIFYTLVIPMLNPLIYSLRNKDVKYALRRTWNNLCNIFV
Procedure, shortened: as §1

[7] = molecular target: OR8H3 (Homo sapiens) (UniProt Q8N146)
Procedure, shortened: as §1

[8] = molecular target: OR8I2 (Homo sapiens) (UniProt Q8N0Y5)
Procedure, shortened: as §1

[9] = molecular target: OR8J1 (Homo sapiens) (UniProt Q8NGP2)
Procedure, shortened: as §1

[10] = molecular target: OR8K3 (Homo sapiens) (UniProt Q8NH51)
Procedure, shortened: as §1

Measured: odorant receptor agonist call

CC(C)CCC(=O)O
inactive: [1] | [2] | [3] | [4] | [5] | [6]

O=C1CCCCC1
inactive: [1] | [2] | [3] | [4] | [5] | [6]

CC(=O)OCC=C(C)CCC=C(C)C
inactive: [1] | [2] | [3] | [4] | [5] | [6]

CCCCCCCOC(C)=O
inactive: [1] | [2] | [3] | [4] | [5] | [6]

CCC1(O)C2(C)CCC(C2)C1(C)C (configuration not stated)
inactive: [1] | [2] | [3] | [4] | [5] | [6]

CCCCCCCCCCC=O
inactive: [1] | [2] | [3] | [4] | [5] | [6]

CCCCCC(=O)O
inactive: [1] | [2] | [3] | [4] | [5] | [6]

CC1=CCC(C(C)(C)O)CC1 (configuration not stated)
inactive: [1] | [2] | [3] | [4] | [5] | [6]

CC(C)(C)c1ccc(CCC=O)cc1
inactive: [1] | [2] | [3] | [4] | [5] | [6]

COc1cc(C)ccc1O
inactive: [1] | [2] | [3] | [4] | [5] | [6]

O=CCc1ccccc1
inactive: [1] | [2] | [3] | [4] | [5] | [6]

CC(C)CC(=O)O
inactive: [1] | [2] | [3] | [4] | [5] | [6]

CCCCCCCCCC=O
inactive: [1] | [2] | [3] | [4] | [5] | [6]

CC(C)C=O
inactive: [1] | [2] | [3] | [4] | [5] | [6]

CC(=O)OC(C)(C)C1CC=C(C)CC1 (configuration not stated)
inactive: [1] | [2] | [3] | [4] | [5] | [6]

c1ccc(Oc2ccccc2)cc1
inactive: [1] | [2] | [3] | [4] | [5] | [6]

CC(C)C(=O)O
inactive: [1] | [2] | [3] | [4] | [5] | [6]

CC(=O)C(C)=O
inactive: [1] | [2] | [3] | [4] | [5] | [6]

CCCCCCCC=O
inactive: [1] | [2] | [3] | [4] | [5] | [6]

CC12C=CCC1C1CCC3CC(=O)CCC3(C)C1CC2 (configuration not stated)
active: [1] | [2] | [6]
not listed: [4]
inactive: all other assays above

CCCCCCCCOC(C)=O
inactive: [1] | [2] | [3] | [4] | [5] | [6]

CC12CCC(C1)C(C)(C)C2=O (configuration not stated)
inactive: [1] | [2] | [3] | [4] | [5] | [6]

CC(=O)OC1CC2CCC1(C)C2(C)C (configuration not stated)
inactive: [1] | [2] | [3] | [4] | [5] | [6]

CC1CCC(C(C)C)C(O)C1 (configuration not stated)
inactive: [1] | [2] | [4] | [5]
active: [3] | [6]
